{"source": "patent US20220193241A1", "about": "“AGENT TARGETING DOUBLE-MEMBRANE ORGANELLE DNA” (CHIBA-PREFECTURE, priority 2019, published 2022)", "test_system": "mitochondria", "assay": "Intracellular localization of pyridinium-indole derivatives with or without TPP", "type": "cell-based", "settings": "2 hours and 48 hours after treatment", "data": [{"smiles": "O=C(O)CCCCn1cc(/C=C/c2cc[n+](CCCC[P+](c3ccccc3)(c3ccccc3)c3ccccc3)cc2)c2ccccc21", "note": "[pyridinium-indole derivative-TPP]", "values": [{"measurement": "colocalization with mitochondria", "value": "colocalized with mitochondria"}]}, {"smiles": "C[n+]1ccc(/C=C/c2cn(CCCCC(=O)O)c3ccccc23)cc1", "note": "[pyridinium-indole derivative]", "values": [{"measurement": "colocalization with mitochondria", "value": "not found"}]}]}
